This assay concerns the target 3xFLAG-KLF2 wild-type (UniProt Q60843). Put plainly: affinity purification with mass spectrometry; wild-type or Klf2 delta/delta mESCs transfected with 3xFLAG-KLF2 WT or 4A; FLAG IP; interacting proteins identified by mass spectrometry and ranked by spectral counting (WT against 4A).

Chains of the proteins cited; added tags and fusions are not shown.
UniProt Q60843: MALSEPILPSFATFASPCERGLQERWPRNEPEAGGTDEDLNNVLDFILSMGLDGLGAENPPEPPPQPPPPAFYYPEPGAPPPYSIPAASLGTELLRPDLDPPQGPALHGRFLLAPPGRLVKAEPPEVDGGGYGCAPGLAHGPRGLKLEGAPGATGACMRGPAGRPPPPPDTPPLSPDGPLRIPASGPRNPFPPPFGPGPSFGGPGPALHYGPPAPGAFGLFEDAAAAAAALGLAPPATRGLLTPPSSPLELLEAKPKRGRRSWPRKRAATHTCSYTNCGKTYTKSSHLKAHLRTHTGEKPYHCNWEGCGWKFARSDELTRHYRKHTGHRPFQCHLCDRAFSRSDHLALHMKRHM
UniProt Q9WTX6: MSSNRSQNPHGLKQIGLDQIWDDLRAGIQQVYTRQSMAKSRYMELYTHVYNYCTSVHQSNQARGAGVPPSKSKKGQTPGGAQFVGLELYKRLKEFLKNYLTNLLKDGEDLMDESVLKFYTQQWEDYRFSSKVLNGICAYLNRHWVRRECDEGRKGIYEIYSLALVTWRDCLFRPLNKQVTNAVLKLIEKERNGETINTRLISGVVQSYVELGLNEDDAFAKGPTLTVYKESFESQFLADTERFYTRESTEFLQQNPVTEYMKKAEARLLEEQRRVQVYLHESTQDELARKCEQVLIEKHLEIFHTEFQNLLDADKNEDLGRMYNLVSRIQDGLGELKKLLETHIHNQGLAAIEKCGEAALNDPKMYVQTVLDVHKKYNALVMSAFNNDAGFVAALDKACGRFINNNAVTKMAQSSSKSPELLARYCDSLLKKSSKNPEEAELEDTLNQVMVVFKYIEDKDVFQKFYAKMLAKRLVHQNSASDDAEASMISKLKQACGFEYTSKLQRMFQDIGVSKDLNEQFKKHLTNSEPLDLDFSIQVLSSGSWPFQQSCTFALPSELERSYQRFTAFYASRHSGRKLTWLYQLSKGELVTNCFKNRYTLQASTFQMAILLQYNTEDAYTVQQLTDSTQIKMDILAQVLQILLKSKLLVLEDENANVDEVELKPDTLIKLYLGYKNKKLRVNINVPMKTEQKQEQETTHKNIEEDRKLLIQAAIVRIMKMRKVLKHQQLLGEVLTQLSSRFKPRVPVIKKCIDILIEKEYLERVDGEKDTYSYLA
UniProt Q8VBV4: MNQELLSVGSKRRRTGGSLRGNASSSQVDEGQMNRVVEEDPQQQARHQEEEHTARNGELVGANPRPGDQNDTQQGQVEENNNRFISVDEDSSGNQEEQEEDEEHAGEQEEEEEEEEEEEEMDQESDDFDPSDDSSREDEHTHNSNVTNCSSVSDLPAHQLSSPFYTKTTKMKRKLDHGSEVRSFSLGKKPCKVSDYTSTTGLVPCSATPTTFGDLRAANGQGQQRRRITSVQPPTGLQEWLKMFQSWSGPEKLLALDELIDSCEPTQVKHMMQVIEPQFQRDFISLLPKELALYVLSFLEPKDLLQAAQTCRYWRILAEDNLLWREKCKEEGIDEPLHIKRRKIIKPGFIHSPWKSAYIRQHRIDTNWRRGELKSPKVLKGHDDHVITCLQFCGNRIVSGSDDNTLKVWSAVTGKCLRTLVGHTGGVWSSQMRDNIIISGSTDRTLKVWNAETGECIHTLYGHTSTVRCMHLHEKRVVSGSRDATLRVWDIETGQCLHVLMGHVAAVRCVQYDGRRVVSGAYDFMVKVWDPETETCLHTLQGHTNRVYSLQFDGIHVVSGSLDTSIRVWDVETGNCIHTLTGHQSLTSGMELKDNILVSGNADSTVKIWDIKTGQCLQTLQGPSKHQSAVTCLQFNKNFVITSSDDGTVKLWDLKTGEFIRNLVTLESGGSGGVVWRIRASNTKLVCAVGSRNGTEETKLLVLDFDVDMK

No constants are given. Whether binding was seen depends on the method and setting. Binding seen in cells or lysates may run through a third protein. These calls come from enrichment with a bait or labelling near it, and not all partners need be listed.

With “CUL1 (endogenous, mESCs) (from UniProt Q9WTX6 1-776)”, the binding result is reported as “binds”.
Consider “FBW7 (endogenous, mESCs) (from UniProt Q8VBV4 1-710)”, for which the binding entry was “binds”.

Values taken from publication PMC8718266.
